The test has as its target AMP-activated protein kinase alpha (AMPKα) (human (endogenous in DU145 and PC-3)). As to the kind of experiment: co-IP; purified ectopic expression PDLIM5 incubated at 4°C for 2 h with DU145 and PC-3 cell lysate (30 mM MOPS pH 7.5, 150 mM NaCl, 0.5% Triton-X100, 1.5 mM MgCl2, 1 mM EGTA, 1 mM DTT); precipitated with AMPKα antibody and Protein A agarose, IgG as control; Western blot for PDLIM5 and AMPKα; only the binder purified.

For 1 molecule, binding results are on record in article PMC5716718.

No constants are given. Whether binding was seen depends on the method and setting. In cells and extracts the contact can be indirect. A result given as binding can be weak or reduced; the word gives no strength.

B1: PDZ and LIM domain 5 (PDLIM5) (protein, UniProt Q96HC4-1 1-596)
chain: MSNYSVSLVGPAPWGFRLQGGKDFNMPLTISSLKDGGKAAQANVRIGDVVLSIDGINAQGMTHLEAQNKIKGCTGSLNMTLQRASAAPKPEPVPVQKGEPKEVVKPVPITSPAVSKVTSTNNMAYNKAPRPFGSVSSPKVTSIPSPSSAFTPAHATTSSHASPSPVAAVTPPLFAASGLHANANLSADQSPSALSAGKTAVNVPRQPTVTSVCSETSQELAEGQRRGSQGDSKQQNGPPRKHIVERYTEFYHVPTHSDASKKRLIEDTEDWRPRTGTTQSRSFRILAQITGTEHLKESEADNTKKANNSQEPSPQLASSVASTRSMPESLDSPTSGRPGVTSLTAAAAFKPVGSTGVIKSPSWQRPNQGVPSTGRISNSATYSGSVAPANSALGQTQPSDQDTLVQRAEHIPAGKRTPMCAHCNQVIRGPFLVALGKSWHPEEFNCAHCKNTMAYIGFVEEKGALYCELCYEKFFAPECGRCQRKILGEVISALKQTWHVSCFVCVACGKPIRNNVFHLEDGEPYCETDYYALFGTICHGCEFPIEAGDMFLEALGYTWHDTCFVCSVCCESLEGQTFFSKKDKPLCKKHAHSVNF
As to B1, the binding result is reported as “binds”.
